According to patent US12351557B2, “Chemical compound manufacture, new salt form, and therapeutic uses thereof” (Eustralis Pharmaceuticals Limited (Trading As Pressura …, priority 2018, dated 2025):
Structures can show the parent of a compound that is named as a salt.

Test: Bacterial Endotoxins
Settings: 40° C./75% RH

Cc1ccccc1-c1cc(N2CCN(C)CC2)ncc1C(=O)N(C)Cc1cc(C(F)(F)F)cc(C(F)(F)F)c1 [Compound of formula (1) 2HCl salt]
Bacterial Endotoxins (0 months): <0.012 EU/mg
Bacterial Endotoxins (Initial Release): <0.012 EU/mg
